# Measurements as given in PubChem BioAssay (NCATS).
# Protein sequences, listed by entry. Tags and fused reporters are not part of them. Lines headed by an entry give the natural chain unless they say otherwise; changes in a name come on top.
# UniProt P13267: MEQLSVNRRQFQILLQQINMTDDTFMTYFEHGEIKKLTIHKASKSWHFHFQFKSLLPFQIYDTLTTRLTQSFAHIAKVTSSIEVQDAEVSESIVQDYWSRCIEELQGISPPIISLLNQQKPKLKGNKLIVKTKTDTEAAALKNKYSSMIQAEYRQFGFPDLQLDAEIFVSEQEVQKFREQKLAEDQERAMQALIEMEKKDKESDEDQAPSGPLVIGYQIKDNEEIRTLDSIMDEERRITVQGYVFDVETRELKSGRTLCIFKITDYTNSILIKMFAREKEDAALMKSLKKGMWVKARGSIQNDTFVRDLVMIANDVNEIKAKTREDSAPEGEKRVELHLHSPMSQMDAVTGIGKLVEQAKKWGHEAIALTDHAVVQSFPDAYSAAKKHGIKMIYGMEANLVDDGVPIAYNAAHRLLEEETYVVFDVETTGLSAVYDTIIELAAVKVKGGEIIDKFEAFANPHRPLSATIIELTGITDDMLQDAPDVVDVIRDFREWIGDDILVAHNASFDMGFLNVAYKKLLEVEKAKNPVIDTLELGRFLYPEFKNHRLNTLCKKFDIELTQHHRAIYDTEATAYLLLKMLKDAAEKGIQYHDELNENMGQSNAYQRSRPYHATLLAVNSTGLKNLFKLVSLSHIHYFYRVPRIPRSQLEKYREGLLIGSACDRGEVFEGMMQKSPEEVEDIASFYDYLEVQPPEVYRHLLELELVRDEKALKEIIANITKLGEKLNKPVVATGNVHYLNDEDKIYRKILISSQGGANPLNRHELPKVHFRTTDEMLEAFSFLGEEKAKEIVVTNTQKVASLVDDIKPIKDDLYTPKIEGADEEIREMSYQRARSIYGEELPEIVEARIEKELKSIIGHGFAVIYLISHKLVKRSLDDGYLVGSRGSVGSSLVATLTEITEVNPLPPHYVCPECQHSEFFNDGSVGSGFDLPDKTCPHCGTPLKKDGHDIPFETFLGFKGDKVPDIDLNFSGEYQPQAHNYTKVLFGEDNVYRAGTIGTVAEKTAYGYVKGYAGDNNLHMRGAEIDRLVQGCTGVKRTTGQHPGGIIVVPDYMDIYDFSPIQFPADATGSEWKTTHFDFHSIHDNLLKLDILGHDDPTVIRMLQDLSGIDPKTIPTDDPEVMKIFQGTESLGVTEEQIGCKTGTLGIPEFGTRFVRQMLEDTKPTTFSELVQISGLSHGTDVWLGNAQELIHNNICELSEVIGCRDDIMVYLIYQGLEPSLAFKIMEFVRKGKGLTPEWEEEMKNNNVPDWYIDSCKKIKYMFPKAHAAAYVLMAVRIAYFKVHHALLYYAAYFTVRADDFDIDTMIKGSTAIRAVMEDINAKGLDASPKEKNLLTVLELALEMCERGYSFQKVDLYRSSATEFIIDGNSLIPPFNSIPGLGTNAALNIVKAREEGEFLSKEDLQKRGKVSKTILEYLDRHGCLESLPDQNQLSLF
# UniProt O15648: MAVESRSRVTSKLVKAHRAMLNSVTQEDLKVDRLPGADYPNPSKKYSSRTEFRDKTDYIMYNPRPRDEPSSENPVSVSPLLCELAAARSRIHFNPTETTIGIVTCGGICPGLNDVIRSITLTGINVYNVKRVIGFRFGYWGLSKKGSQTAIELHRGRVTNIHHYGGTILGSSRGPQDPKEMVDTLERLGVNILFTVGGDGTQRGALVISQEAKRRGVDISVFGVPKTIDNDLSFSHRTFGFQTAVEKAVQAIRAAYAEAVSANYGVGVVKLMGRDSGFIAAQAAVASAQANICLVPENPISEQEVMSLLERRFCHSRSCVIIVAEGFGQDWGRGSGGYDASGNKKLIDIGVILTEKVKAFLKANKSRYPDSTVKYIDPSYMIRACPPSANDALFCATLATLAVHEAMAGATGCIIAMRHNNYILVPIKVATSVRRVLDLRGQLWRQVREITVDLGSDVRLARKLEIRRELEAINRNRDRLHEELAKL
# UniProt O89049, whole entry, looked up: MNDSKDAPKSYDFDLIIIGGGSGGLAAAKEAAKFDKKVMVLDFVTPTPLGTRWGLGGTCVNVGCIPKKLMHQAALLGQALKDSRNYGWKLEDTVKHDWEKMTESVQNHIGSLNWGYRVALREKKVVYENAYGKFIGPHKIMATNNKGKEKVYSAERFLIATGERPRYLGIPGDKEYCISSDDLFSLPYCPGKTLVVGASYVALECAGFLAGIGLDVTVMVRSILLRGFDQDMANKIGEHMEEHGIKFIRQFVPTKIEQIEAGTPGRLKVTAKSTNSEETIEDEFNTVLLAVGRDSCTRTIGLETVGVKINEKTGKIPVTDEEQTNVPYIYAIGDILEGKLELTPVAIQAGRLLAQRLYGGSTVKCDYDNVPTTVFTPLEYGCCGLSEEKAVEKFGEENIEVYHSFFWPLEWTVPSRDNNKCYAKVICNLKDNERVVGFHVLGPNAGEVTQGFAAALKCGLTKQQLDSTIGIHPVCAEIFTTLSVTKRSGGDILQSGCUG
# UniProt O75604: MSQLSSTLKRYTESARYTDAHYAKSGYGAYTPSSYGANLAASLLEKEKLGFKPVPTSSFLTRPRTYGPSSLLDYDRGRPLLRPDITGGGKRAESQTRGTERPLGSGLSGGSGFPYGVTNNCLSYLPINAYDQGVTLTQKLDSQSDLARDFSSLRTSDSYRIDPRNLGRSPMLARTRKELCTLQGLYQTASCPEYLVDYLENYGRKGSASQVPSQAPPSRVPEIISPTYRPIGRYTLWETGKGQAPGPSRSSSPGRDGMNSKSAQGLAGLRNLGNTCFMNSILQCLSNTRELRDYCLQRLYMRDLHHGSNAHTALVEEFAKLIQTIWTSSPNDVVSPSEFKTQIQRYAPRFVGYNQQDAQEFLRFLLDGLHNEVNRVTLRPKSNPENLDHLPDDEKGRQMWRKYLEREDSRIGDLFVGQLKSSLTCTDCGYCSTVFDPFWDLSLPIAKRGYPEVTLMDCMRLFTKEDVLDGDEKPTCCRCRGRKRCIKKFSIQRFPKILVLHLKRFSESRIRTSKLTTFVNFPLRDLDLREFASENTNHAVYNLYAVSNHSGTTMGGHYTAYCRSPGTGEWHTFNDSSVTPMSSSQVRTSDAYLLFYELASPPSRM
# UniProt P39748, whole entry, looked up: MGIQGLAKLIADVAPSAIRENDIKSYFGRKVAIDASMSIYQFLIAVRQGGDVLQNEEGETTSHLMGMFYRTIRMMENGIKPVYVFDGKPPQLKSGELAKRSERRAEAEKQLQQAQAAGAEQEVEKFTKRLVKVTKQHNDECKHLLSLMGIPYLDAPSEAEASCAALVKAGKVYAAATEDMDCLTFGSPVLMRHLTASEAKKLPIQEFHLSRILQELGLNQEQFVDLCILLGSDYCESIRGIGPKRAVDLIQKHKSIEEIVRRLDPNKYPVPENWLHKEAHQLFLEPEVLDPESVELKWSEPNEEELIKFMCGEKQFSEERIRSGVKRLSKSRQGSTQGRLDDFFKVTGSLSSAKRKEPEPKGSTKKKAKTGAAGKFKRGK
# Inconclusive results, whose numbers are uncertain, are shown with a selection of clear calls. For part of these data: A potency beside an inconclusive call is a rough fit, not a confirmed value. The source made the active and inactive calls. Unless noted, the call rests on the fitted dose curve; in most records, active means well fitted curve in the direction sought with a large enough effect; inconclusive means small, poorly fitted or top-dose-only effect, or another doubt; inactive means no such curve, though single readings can be large; an effect the other way counts as inactive or inconclusive.
# Tests used:
# [1] = biological target: DNA polymerase III PolC-type (Bacillus subtilis (strain 168)) (UniProt P13267); assay: qHTS Validation Assay for the Inhibitors of DNA Replication in Gram-Positive Bacteria (AID 485295); further: potency means the concentration at half of the fitted maximal effect
# How it was run: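 PicoGreen fluorescence (ex 480–485/em 535–540 nm) reports dsDNA synthesized on ssM13Gori template with dNTPs/NTPs. Enzyme: holoenzyme rebuilt from purified PolC, beta subunit, SSB and primase. Compound preincubated before substrate addition; RT throughout.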
# [2] = biological target: ATP-dependent 6-phosphofructokinase (Trypanosoma brucei brucei) (UniProt O15648); assay: qHTS Validation Assay to Find Inhibitors of T. brucei phosphofructokinase (AID 485368); further: potency means the concentration at half of the fitted maximal effect
# How it was run: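 Activity was normalized between 1x (1.25 nM) PFK wells as no inhibition and enzyme-free wells as full inhibition, from luminescence after ADP-Glo detection of ADP made from 0.5 mM F6P and 0.1 mM ATP over 45 min.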
# [3] = biological target: Thioredoxin reductase 1, cytoplasmic (Rattus norvegicus) (UniProt O89049); assay: qHTS Assay for Inhibitors of Mammalian Selenoprotein Thioredoxin Reductase 1 (TrxR1) (AID 488773); conditions: Potency: inhibition; further: potency means the concentration at half of the fitted maximal effect; nearly all actives have a fitted effect of over 40% in size
# How it was run: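 Steps: enzyme (90 nM) plus NADPH (400 uM final), 5 min at ~22 deg C; compound added, 15 min; selenite (400 uM final) added; fluorescence followed for 8 min. Concentration-response curves derived from the normalized delta values.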
# [4] = biological target: Ubiquitin carboxyl-terminal hydrolase 2 (Homo sapiens) (UniProt O75604); assay: qHTS Validation Assay for Inhibitors of Ubiquitin-specific Protease USP2a Using CHOP2 as the Reporter (AID 463106); further: potency means the concentration at half of the fitted maximal effect
# How it was run: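 USP2 core (10 nM final) was preincubated with compound 30 min at RT in pH 8.0 Tris/CaCl2/beta-ME/CHAPS buffer. Ub-CHOP2 and reporter substrate (25 nM final each) were then added, with fluorescence (Ex 485/Em 531) read after 60 min. Data were normalized to NEM full inhibition and fitted to concentration-response curves.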
# [5] = Quantitative high throughput screen for delayed death inhibitors of the malarial parasite plastid, 48 hour incubation (AID 488752); further: nearly all actives have a fitted effect of over 65% in size; further: potency means the concentration at half of the fitted maximal effect
# How it was run: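 One parasite generation (48 h, 37 C, 5% CO2) of luciferase-reporter P. falciparum in erythrocytes is run with test compound; decreased luminescence indicates inhibited growth.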
# [6] = qHTS Validation Assay to Find Inhibitors of Chronic Active B-Cell Receptor Signaling (AID 485345; active means well fitted curve in the direction sought with a large enough effect in the main read-out, with a control signal flat, not every such curve was filed as active; inconclusive means small, poorly fitted or top-dose-only effect, or effect the other way, or a change in a side signal; inactive means no such curve, though single readings can be large or run the other way; further: potency means the concentration at half of the fitted maximal effect;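 on activity change: 0% = untreated basal cells and 100% = 10 µM MG-132 proteasome inhibitor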); conditions: ABC-DLBCL cells, chronic BCR signaling reporter; activity change: CBG luciferase, at 46.1 µM (top of the series)
# How it was run: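 TMD8 ABC-DLBCL cells stably carrying doxycycline-inducible IkappaBalpha–green luciferase fusion plus unfused red luciferase; compounds 46 uM to 3 nM, 4 h at 37C with doxycycline. Corrected green/red luminescence ratio normalized to 10 uM MG-132 and basal cell wells; curves fitted.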
# [7] = Validation screen for small molecules that induce DNA re-replication in MCF 10A normal breast cells (AID 463097); further: potency means the concentration at half of the fitted maximal effect; nearly all actives have a fitted effect of over 60% in size
# How it was run: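 250 MCF 10A cells/well; compound pin-transferred; 48 hr, 37 C, 5% CO2; Hoechst 40 min; imaged 405/500-530 nm. Hits = more high-intensity nuclei.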
# [8] = Quantitative high throughput screen for delayed death inhibitors of the malarial parasite plastid, 96 hour incubation (AID 488745); further: potency means the concentration at half of the fitted maximal effect; nearly all actives have a fitted effect of over 70% in size
# How it was run: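 Growth of reporter-bearing P. falciparum in red cells is measured after 96 h with compound, covering two erythrocytic cycles. Luminescence from the integrated luciferase serves as the growth signal.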
# [9] = biological target: Thioredoxin reductase 1, cytoplasmic (Rattus norvegicus) (UniProt O89049); assay: qHTS Assay for Substrates of Mammalian Selenoprotein Thioredoxin Reductase 1 (TrxR1) (AID 488772);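 further: NADPH fluorescence in the first read after selenite addition and not the 8 min delta; a drop in NADPH fluorescence below the no-compound background marks a TrxR1 substrate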; further: potency means the concentration at half of the fitted maximal effect
# How it was run: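 Quantitative HTS in Tris-HCl buffer at pH 7.5 with EDTA and Tween-20, using rat TrxR1, 400 uM NADPH and 400 uM selenite (final). A fall in initial NADPH fluorescence relative to background marked substrate behaviour.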
# [10] = biological target: Flap endonuclease 1 (Homo sapiens) (UniProt P39748); assay: qHTS Validation Assay for the Inhibitors of Human Flap endonuclease 1 (FEN1) (AID 488816); further: potency means the concentration at half of the fitted maximal effect
# How it was run: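 Human FEN1 (10 nM) preincubated 15 min at room temperature with compounds, then flap DNA substrate added at 50 nM final. Fluorescence read at 0 and 15 min; concentration-response fitted with four-parameter Hill equation.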
# [11] = biological target: Beta-2 adrenergic receptor (Homo sapiens) (UniProt P07550); assay: qHTS validation assay of beta-arrestin-biased ligands of beta2-adrenergic receptor (AID 485366); conditions: cell-based beta-arrestin recruitment to ADRB2, qHTS
# How it was run: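 Luminescence from a tTA-responsive luciferase, induced when recombinant beta-arrestin is recruited to recombinant beta2-AR, served as the agonism signal. Cells were exposed to compound for 18 hr at 37 degrees C; titrations spanned up to 46 microM.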
structure (smiles),measurement,setting,value
N.N.O=C(O)C1(C(=O)O)CCC1.[Pt+2],Potency,[1],"inconclusive: 29.9 µM [inhibitor, single point]"
same,Potency,[2],"inconclusive: 8.49 µM [falling, partial curve]"
same,Potency,[3],active: 0.267 µM
NC(CCCP(=O)(O)O)C(=O)O (stereo not drawn),Potency,[4],inactive
same,Potency,[5],inactive
CC(=O)SCC[N+](C)(C)C,Potency,[2],inactive
Nc1nc(Cl)nc2c1ncn2[C@@H]1O[C@H](COP(=O)(O)OP(=O)(O)OP(=O)(O)O)[C@@H](O)[C@H]1O,Potency,[2],"inconclusive: 15.1 µM [falling, partial curve]"
OC[C@H]1O[C@H](n2cnc3c(N[C@H]4CCC[C@@H]4O)ncnc32)[C@H](O)[C@@H]1O,Potency,[1],inactive
same,Potency,[2],"inconclusive: 33.8 µM [activator, single point]"
CNCC(O)c1ccc(O)c(O)c1 (stereo not drawn),activity change,[6],inconclusive: -7.76%
same,Potency,[3],"inconclusive: 5.97 µM [inhibitor, full curve]"
O=c1onc2cnc3ccccc3n12,Potency,[7],"inconclusive: 35.5 µM [activator, single point]"
same,Potency,[2],"inconclusive: 21.3 µM [falling, partial curve, poor fit]"
N#C/C(=C\c1ccc(O)c(O)c1)C(=O)Nc1ccccc1,Potency,[7],active: 12.6 µM
same,Potency,[2],"inconclusive: 37.9 µM [falling, single point]"
same,Potency,[8],"inconclusive: 18.5 µM [inhibitor, single point]"
same,Potency,[5],"inconclusive: 18.5 µM [inhibitor, single point]"
same,Potency,[9],"inconclusive: 37.7 µM [inhibitor, partial curve, poor fit]"
same,Potency,[10],active: 18.9 µM
Cc1cccc(C#Cc2ccccc2)n1,Potency,[11],"inconclusive: 18.4 µM [rising, single point]"
same,Potency,[2],"inconclusive: 15.1 µM [falling, partial curve]"
same,Potency,[8],"inconclusive: 11.7 µM [activator, partial curve]"
same,Potency,[5],"inconclusive: 6.57 µM [activator, partial curve]"
N#C/C(=C\c1ccc(O)c(O)c1)C(=O)c1ccc(O)c(O)c1,Potency,[4],active: 1.17 µM
same,Potency,[1],"inconclusive: 23.8 µM [inhibitor, single point]"
same,Potency,[2],active: 0.675 µM
same,Potency,[5],inactive
same,Potency,[9],inactive
same,Potency,[3],"inconclusive: 10.6 µM [inhibitor, partial curve]"
O=c1c(-c2ccc(O)cc2)coc2cc(O)ccc12,Potency,[6],"inconclusive: 0.0651 µM [rising, full curve, poor fit]"
same,Potency,[2],"inconclusive: 0.757 µM [activator, full curve, poor fit]"
same,Potency,[5],"inconclusive: 11.7 µM [activator, partial curve]"
O=NN(CCCl)C(=O)NCCCl,Potency,[2],inactive

# Another view of some results above.
structure (smiles)	measurement	setting	value
N#C/C(=C\c1ccc(O)c(O)c1)C(=O)c1ccc(O)c(O)c1	Potency	[9]	inactive
same	Potency	[3]	inconclusive: 10.6 µM [inhibitor, partial curve]
O=c1c(-c2ccc(O)cc2)coc2cc(O)ccc12	Potency	[6]	inconclusive: 0.0651 µM [rising, full curve, poor fit]
